# Laboratory results as given in PubChem BioAssay AID2685 (National Center for Advancing Translational Sciences (NCATS), 2010).
# The list shows a part of the results. Further columns of the screen follow, without active or inactive calls. The list favours compounds with an active or inconclusive main result. The note in brackets gives the kind of curve behind each potency; many fits are weak.
# Test: qHTS Assay for Lipid Storage Modulators in Drosophila S3 Cells;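 as to cell number change: cells counted by Cell Tracker Red CMTPX staining in the red channel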
# Conditions: BODIPY lipid droplet fluorescence, 18-24 h; for cell number change: measured here: cell count max response, cells fed with added oleic acid
# Outline: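 Drosophila S3 cells got compounds at several concentrations plus oleic acid (400 uM solution). Laser-scanning cytometry with 488 nm excitation read lipid droplets at 500-530 nm and cells at 575-640 nm. Percent activity was relative to 20 uM Triacsin C.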
# [1] = measured here: lipid fluorescence (Fed channel) AC50, cells fed with added oleic acid
# [2] = measured here: cell number channel AC50, cells fed with added oleic acid
SMILES,cell number change,AC50 [1],AC50 [2]
CC1CCN(c2c(NCC3CCC(C(=O)Nc4ccccn4)CC3)c(=O)c2=O)CC1 (stereo unspecified),13.1%,"20.6 µM [rising, single point]",–
Cc1ccc(S(=O)(=O)NCCNC(=O)N2CCOCC2)cc1,-33.9%,"1.16 µM [rising, full curve, poor fit]","14.6 µM [falling, partial curve]"
O=C(NCc1ccccn1)c1nc(Cn2cc([N+](=O)[O-])cn2)no1,13.1%,"29.1 µM [falling, single point]",–
COC(c1ccccc1)(c1ccccc1)C(Oc1nc(C)cc(C)n1)C(=O)O (stereo unspecified),39.9%,–,"29.1 µM [rising, partial curve, poor fit]"
CN(C(=O)COC(=O)CNC(=O)c1cccs1)c1c(N)n(Cc2ccccc2)c(=O)[nH]c1=O,-12.5%,"3.26 µM [rising, partial curve]",–
COc1ccccc1CNC(=O)C[n+]1ccccc1,-2.79%,–,–
O=C(NCCc1ccccc1)c1ccccc1NS(=O)(=O)N1CCCC1,-10.5%,–,–
O=C(CC(c1ccco1)C1CCCCC1=O)c1ccco1 (stereo unspecified),-0.492%,"0.731 µM [falling, full curve]",–
COc1cccc(NC(=S)NCc2ccccn2)c1,42.6%,–,"3.66 µM [rising, single point]"
Cc1ccc(NC(=O)CCC(=O)Nc2nnc(C3CCCCC3)s2)cc1,–,"29.1 µM [falling, single point]",–
COc1ccc(S(=O)(=O)NCc2ccccn2)cc1NC(=O)c1ccccc1F,32.4%,"29.1 µM [falling, single point]",–
Clc1ccc2nc(N3CCCCC3)[nH]c2c1,–,"0.00411 µM [falling, full curve, poor fit]",–
CSc1cccc(NC(=O)N2CCCC(CNS(=O)(=O)Cc3ccccc3)C2)c1 (stereo unspecified),12.6%,"3.66 µM [rising, full curve, poor fit]",–
CN(C)n1cccc1/C=C(\C#N)S(=O)(=O)c1cccc(Cl)c1,12.4%,–,–
COc1ccc(S(=O)(=O)N(c2onc(C)c2Cl)S(=O)(=O)c2ccc(OC)cc2)cc1,-27.1%,"0.651 µM [falling, single point]",–
Cc1ccc(-c2cnn(-c3cccc(C(F)(F)F)c3)c2N)cc1,104%,"29.1 µM [rising, partial curve]","20.6 µM [rising, single point]"
Cc1cc(/C=C2\SC(=S)NC2=O)cc(C)c1O,1.66%,"11.6 µM [falling, partial curve]",–
O=C(NC1CCCc2ccccc21)C1CCN(c2nnc(-n3cccc3)s2)CC1 (stereo unspecified),–,"1.84 µM [rising, partial curve]","1.84 µM [rising, partial curve]"
CCCCC(=O)NC(=S)Nc1ccc(Cl)c(C(=O)O)c1,30.6%,–,"29.1 µM [rising, partial curve]"

SMILES,cell number change,AC50 [1],AC50 [2]
CC(C)(C)c1ccc(C(=O)NC(CC(=O)O)c2ccc(OC3CCCC3)cc2)cc1 (stereo unspecified),13.1%,"23.1 µM [falling, single point]",–
CC1=NC(C)(C)Cc2cc(C)c(C)cc21,3.84%,"0.116 µM [falling, full curve, poor fit]",–
CCOc1ccc2oc(C(=O)OCC(=O)NCc3ccc(OC)cc3)c(C)c2c1,-40.8%,–,"29.1 µM [falling, single point]"
CCOC(=O)c1ccc(NC(=O)CCC2COc3ccccc3O2)cc1 (stereo unspecified),8.71%,"8.2 µM [rising, partial curve, poor fit]",–
O=C(NCc1ccc(F)cc1)C(c1ccccc1)c1ccccc1,20.7%,"4.11 µM [falling, partial curve, poor fit]",–
CCOc1ccc(NC(=O)C2C3CCC4C(CCC32)C4(Cl)Cl)cc1 (stereo unspecified),14.8%,–,–
Cn1c(-c2ccccc2)cnc1NCc1cc2c(cc1[N+](=O)[O-])OCO2,–,"0.58 µM [rising, full curve]","6.51 µM [rising, single point]"
Cc1cc(C)c(S(=O)(=O)NC2CC(C)(C)NC(C)(C)C2)cc1C,35.4%,"29.1 µM [rising, single point]","0.00517 µM [rising, full curve, poor fit]"
CCCN(C(=O)c1cc(-c2ccco2)nc2ccccc12)c1c(N)n(Cc2ccccc2)c(=O)[nH]c1=O,45.3%,"7.31 µM [rising, partial curve]","7.31 µM [rising, partial curve, poor fit]"
COc1ccc(N2C(=O)c3ccc(C(=O)Nc4cc(OC)ccc4OC)cc3C2=O)cc1,12.5%,–,–
CCOc1cc(/C=N\NC(=O)c2ccc(NC(=O)C(C)(C)C)cc2)ccc1OC(=O)c1cccc(C)c1,7.55%,"0.0651 µM [falling, full curve, poor fit]",–
COc1cnc(SCCC(F)=C(F)F)[nH]c1=O,21.5%,–,"2.91 µM [falling, single point]"
CC(CCc1ccccc1)NC(=O)CNC(=O)COc1ccccc1 (stereo unspecified),–,"0.058 µM [falling, partial curve, poor fit]",–
Cc1cc2oc(=O)cc(CN(C)Cc3ccc(OC(F)F)cc3)c2cc1Cl,–,"0.206 µM [rising, single point]",–
COc1ccc(-c2nnc(SCC(=O)Nc3nc4ccccc4s3)n2C)cc1,-5.01%,–,–
N/C(=N\OC(=O)Cc1cccs1)c1ccc(Br)cc1,-50%,–,"0.651 µM [falling, partial curve, poor fit]"
COc1ccc(/C=C/C(=O)c2cc(Br)ccc(=O)c2O)cc1,-17.8%,"58 µM [falling, single point]",–
COc1ccc(OC)c(NC(=O)C2CCC(CNc3c(N4CCOCC4)c(=O)c3=O)CC2)c1 (stereo unspecified),40.5%,"1.3 µM [rising, full curve]","2.91 µM [rising, full curve]"
Nc1nonc1C(=O)N/N=C/c1cc2c(cc1[N+](=O)[O-])OCO2,20.5%,"0.206 µM [falling, full curve]",–

# Reprinted at random: two entries already listed
SMILES,cell number change,AC50 [1],AC50 [2]
COc1ccc(-c2nnc(SCC(=O)Nc3nc4ccccc4s3)n2C)cc1,-5.01%,–,–
N/C(=N\OC(=O)Cc1cccs1)c1ccc(Br)cc1,-50%,–,"0.651 µM [falling, partial curve, poor fit]"
